Drawing on publication PMC9681662, this text covers binding for 1 substance.

Amino acid sequences for entries named in this document (tags omitted).
UniProt Q13535: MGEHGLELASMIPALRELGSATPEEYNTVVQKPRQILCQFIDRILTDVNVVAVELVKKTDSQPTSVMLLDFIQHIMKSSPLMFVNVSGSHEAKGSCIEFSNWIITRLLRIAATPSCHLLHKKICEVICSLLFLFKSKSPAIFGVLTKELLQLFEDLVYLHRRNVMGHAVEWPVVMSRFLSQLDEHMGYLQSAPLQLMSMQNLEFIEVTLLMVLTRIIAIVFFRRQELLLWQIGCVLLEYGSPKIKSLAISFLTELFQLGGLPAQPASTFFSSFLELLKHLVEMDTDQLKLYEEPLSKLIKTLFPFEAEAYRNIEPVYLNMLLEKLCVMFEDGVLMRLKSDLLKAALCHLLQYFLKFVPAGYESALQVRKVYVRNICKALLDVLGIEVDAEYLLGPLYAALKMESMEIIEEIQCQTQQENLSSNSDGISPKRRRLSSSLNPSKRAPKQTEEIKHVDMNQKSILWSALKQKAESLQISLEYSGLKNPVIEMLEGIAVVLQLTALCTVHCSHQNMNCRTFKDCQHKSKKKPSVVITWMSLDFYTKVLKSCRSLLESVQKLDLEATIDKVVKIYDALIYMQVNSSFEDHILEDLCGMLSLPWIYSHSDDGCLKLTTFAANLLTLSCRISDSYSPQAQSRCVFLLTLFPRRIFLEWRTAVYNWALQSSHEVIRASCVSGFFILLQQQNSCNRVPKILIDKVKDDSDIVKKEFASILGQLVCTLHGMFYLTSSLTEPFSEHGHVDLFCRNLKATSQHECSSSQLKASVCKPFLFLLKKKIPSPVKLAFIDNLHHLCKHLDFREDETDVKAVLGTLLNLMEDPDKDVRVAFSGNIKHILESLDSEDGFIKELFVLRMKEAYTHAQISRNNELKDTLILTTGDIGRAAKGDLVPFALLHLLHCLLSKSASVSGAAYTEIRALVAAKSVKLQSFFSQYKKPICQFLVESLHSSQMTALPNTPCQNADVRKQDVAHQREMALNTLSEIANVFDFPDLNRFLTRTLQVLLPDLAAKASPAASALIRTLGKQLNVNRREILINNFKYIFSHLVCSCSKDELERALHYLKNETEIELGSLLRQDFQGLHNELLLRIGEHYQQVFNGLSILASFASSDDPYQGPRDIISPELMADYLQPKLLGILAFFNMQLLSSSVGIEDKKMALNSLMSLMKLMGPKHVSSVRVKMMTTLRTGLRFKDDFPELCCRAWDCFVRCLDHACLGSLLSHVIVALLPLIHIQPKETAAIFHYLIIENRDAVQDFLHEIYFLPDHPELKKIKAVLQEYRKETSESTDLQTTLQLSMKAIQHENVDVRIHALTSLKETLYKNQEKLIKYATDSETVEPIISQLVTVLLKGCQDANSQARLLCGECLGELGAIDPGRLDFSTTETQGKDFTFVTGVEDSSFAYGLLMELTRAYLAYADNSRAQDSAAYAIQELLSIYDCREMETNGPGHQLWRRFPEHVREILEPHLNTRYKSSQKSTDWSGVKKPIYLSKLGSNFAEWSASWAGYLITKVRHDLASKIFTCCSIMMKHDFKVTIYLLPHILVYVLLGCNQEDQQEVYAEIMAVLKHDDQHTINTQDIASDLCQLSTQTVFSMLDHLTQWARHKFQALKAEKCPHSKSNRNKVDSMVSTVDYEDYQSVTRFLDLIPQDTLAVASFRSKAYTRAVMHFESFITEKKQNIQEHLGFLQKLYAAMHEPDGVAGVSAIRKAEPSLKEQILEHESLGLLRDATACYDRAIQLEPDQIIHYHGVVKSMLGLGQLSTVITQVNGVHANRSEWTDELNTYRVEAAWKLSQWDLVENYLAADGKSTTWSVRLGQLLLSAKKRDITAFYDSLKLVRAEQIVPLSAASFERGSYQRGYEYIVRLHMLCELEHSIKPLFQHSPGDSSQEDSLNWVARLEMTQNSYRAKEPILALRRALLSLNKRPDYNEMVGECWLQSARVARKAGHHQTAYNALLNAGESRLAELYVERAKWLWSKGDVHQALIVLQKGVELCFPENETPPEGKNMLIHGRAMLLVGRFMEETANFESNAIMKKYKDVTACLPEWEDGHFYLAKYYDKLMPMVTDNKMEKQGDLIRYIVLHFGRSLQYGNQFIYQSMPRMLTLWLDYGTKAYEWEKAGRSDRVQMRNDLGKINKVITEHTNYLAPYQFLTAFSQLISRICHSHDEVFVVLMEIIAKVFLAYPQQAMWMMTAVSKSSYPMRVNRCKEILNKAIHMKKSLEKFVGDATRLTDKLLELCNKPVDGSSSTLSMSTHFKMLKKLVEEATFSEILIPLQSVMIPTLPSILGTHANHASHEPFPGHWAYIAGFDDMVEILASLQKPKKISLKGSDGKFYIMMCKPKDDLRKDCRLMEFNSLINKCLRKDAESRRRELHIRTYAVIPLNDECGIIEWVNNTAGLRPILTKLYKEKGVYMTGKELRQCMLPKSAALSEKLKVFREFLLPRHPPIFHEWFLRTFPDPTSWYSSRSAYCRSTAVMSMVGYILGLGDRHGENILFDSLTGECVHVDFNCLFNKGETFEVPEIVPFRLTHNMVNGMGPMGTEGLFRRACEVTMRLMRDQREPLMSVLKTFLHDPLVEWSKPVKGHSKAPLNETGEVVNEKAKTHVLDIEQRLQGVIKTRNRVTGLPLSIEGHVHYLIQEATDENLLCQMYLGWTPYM
UniProt P15927: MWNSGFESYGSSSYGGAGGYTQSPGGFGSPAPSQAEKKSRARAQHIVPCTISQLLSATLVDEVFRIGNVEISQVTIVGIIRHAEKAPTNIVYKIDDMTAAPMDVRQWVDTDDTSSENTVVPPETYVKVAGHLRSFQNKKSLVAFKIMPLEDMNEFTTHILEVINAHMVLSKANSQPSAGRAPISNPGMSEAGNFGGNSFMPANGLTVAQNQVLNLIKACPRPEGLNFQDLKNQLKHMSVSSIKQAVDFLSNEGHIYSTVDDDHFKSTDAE

Results are given in words; binding and its absence hold for the method and conditions named. In cells and extracts the contact can be indirect. Some binding calls cover weakened binding; strength is not graded here.

This test deals with ATR (human (endogenous in HUVEC)) (UniProt Q13535). Description: proximity ligation; Duolink PLA in fixed (4% formaldehyde), Triton X-100 permeabilised HUVEC transduced with PCAT19 overexpression plasmid or pcDNA3.1+ control; anti-RPA2 and anti-ATR antibodies; PLA signals normalised to number of nuclei.

As to RPA2 (from UniProt P15927 1-270), the binding result is “binds”.
